Assay: Plasma free fatty acid level during lipid infusion
Assay type: in vivo
Conditions: during lipid infusion in conscious mice

SMILES	increase in total plasma FFA levels
CCCCCCCCCCCCCCCC(=O)OCC(COC(=O)CCCCCCCCCCCCCCC)OC(=O)CCCCCCCCCCCCCCC [TG-palmitate, reference compound]	2 fold
CCCCCC/C=C\CCCCCCCC(=O)OCC(COC(=O)CCCCCCC/C=C\CCCCCC)OC(=O)CCCCCCC/C=C\CCCCCC [TG-palmitoleate]	2 fold
